{"source": "patent US11684601B2", "about": "“Treatment of cancer with combinations of agents” (The Board of Trustees of the Leland Stanford Junior …, priority 2019, dated 2023)", "key": {"CHP134 cells": {"tested_on": "CHP134 cells", "experiment": "U-13C glucose isotope tracing by LC-MS", "assay_type": "cell-based", "conditions": "hypoxia; 5 mM DCA; U-13C glucose 3 h"}, "[1]": {"tested_on": "acetylation on H3K9, H3K27, and total H3", "experiment": "Immunoblots of histone acetylation", "assay_type": "cell-based", "conditions": "5 mM or 10 mM DCA", "experimental": "Protein isolation and western blot. Cells were washed with PBS buffer and lysed with Harvest lysis buffer supplemented with Halt inhibitors for 5-10 min. Cell lysate was centrifuged at 5000 rpm for 5 min at 4° C. The supernatant containing cytosolic proteins was transferred to a new EP tube. The insoluble part contains nuclear proteins and was further lysed with nuclear lysis buffer for 5 min at 4° C. Then the lysate was sonicated in water-bath at 4° C. for 6 cycles (1 cycle=30 s sonication and 30 s cooldown). After sonication, the cell lysate was centrifuged at 15000 rpm for 10 min. Protein concentration was determined by BOA assay. 1 μg nuclear proteins or 1 μg cytosolic proteins were boiled in loading buffer with reducing reagents, then separated with SDS-PAGE. Protein were transferred onto a nitrocellulose membrane. After blocking in 5% non-fat milk for 1 hour, the first antibody was applied. After 3×TBST washes, HRP-conjugated secondary antibodies were applied. Signals were detected with an ECL kit. The complete antibody list is in table 1."}}, "note": "For at least one compound, name, drawing or mass did not settle the structure.", "data": [{"smiles": "O=C(O)C(Cl)Cl", "note": "[DCA, dichloroacetate]", "values": [{"measurement": "labeling fraction of acetyl-CoA [M+2] and citrate [M+2]", "setting": "CHP134 cells", "result": "increased labeling fraction of acetyl-CoA [M+2] and citrate [M+2]"}, {"measurement": "acetylation restoration effect", "setting": "[1]; hypoxia vs normoxia", "result": "much more pronounced under hypoxia"}, {"measurement": "H3K27 acetylation", "setting": "[1]; hypoxia", "result": "restored H3K27 acetylation in a dose-dependent manner"}, {"measurement": "acetylation of H3K9 and total acetyl-H3", "setting": "[1]; normoxia", "result": "slightly increased"}]}]}
